According to paper doi:10.1101/2025.03.10.25323421:
These are yes or no findings as the source states them, for the method shown. Binding seen in cells or lysates may run through a third protein. Some results given as binding are weak or reduced against the parent protein; the word gives no strength.

By UniProt entry, the sequences of proteins in these tests, tags left out.
UniProt P23769: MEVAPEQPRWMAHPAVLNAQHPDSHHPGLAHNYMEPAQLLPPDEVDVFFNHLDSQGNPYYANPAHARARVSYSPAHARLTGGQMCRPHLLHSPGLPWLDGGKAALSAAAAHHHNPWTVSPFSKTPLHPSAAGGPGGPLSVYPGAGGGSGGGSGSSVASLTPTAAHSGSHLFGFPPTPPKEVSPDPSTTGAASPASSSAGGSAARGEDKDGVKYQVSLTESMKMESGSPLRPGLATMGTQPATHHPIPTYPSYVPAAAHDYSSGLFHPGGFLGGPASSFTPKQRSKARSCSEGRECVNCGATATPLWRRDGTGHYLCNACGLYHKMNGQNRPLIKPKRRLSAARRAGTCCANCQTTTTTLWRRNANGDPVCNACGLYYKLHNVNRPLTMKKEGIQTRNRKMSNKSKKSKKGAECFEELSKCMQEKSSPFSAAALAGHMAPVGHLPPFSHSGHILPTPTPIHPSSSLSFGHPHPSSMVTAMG
UniProt Q92786: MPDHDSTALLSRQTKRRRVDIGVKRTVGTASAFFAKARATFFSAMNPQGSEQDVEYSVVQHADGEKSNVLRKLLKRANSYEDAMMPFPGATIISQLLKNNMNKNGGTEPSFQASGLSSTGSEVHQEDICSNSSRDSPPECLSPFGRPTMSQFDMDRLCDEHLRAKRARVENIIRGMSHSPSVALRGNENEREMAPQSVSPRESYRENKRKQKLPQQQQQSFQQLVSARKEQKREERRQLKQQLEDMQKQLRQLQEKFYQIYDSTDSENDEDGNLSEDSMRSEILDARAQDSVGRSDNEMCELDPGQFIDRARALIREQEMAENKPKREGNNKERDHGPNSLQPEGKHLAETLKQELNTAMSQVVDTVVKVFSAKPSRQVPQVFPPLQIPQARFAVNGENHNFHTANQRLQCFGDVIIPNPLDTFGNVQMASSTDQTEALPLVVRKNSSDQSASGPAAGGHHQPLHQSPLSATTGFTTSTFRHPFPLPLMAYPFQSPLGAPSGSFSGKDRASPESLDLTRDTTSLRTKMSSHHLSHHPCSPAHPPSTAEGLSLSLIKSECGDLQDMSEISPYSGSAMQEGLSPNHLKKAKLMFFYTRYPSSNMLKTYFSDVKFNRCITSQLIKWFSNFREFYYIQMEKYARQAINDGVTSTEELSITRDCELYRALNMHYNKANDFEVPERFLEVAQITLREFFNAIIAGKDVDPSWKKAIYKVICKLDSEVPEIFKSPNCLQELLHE

Key:
[1] = molecular target: GATA2 (human (endogenous in HDLEC)) (UniProt P23769); assay: proximity ligation
[2] = molecular target: prospero-related homeobox-1 (PROX1) (human (endogenous in HDLEC)) (UniProt Q92786); assay: proximity ligation

| binding [1] | binding [2] | Molecule |
| --- | --- | --- |
| binds |  | prospero-related homeobox-1 (PROX1) (from UniProt Q92786 1-737) |
| binds | binds | ERG (ETS-family transcription factor) (protein, UniProt P11308-4 1-479) MASTIKEALSVVSEDQSLFECAYGTPHLAKTEMTASSSSDYGQTSKMSPRVPQQDWLSQPPARVTIKMECNPSQVNGSRNSPDECSVAKGGKMVGSPDTVGMNYGSYMEEKHMPPPNMTTNERRVIVPADPTLWSTDHVRQWLEWAVKEYGLPDVNILLFQNIDGKELCKMTKDDFQRLTPSYNADILLSHLHYLRETPLPHLTSDDVDKALQNSPRLMHARNTGGAAFIFPNTSVYPEATQRITTRPDLPYEPPRRSAWTGHGHPTPQSKAAQPSPSTVPKTEDQRPQLDPYQILGPTSSRLANPGSGQIQLWQFLLELLSDSSNSSCITWEGTNGEFKMTDPDEVARRWGERKSKPNMNYDKLSRALRYYYDKNIMTKVHGKRYAYKFDFHGIAQALQPHPPESSLYKYPSDLPYMGSYHAHPQKMNFVAPHPPALPVTSSSFFAAPNPYWNSPTGGIYPNTRLPTSHMPSHLGTYY |
